{"source": "patent US20110195049A1", "about": "“COMPOSITIONS AND METHODS FOR TREATING MULTIPLE SCLEROSIS” (BIOVISTA, INC., priority 2008, published 2011)", "tested_on": "acute EAE murine model of MS", "experiment": "Acute EAE murine model (MOG-induced), clinical score over 35 days", "type": "in vivo, female C57BL/6J mice", "details": "1.0 mg/kg IP once daily from study day 0; 35-day study; n = 10", "note": "At least one compound was matched to its structure with a doubt left.", "data": [{"compound": "C[C@@H]1C[C@H]2[C@@H]3CCC4=CC(=O)C=C[C@]4(C)[C@@]3(F)[C@@H](O)C[C@]2(C)[C@@]1(O)C(=O)CO", "note": "[Dexamethasone]", "values": [{"measurement": "activity (average clinical score) compared to the vehicle-only treatment group (1F)", "result": "statistically significant"}]}]}
